Laboratory results: patent publication US20030236399A1, “Method of improving the quality of taste of natural sweetner” (Shangdong Hua Xian Stevia Co., Ltd., priority 2002, published 2003)

Assay: Comparison of quality of taste of the natural sweetener before and after the process, at sucrose-equivalent sweetness
Source text: Comparisons have been made between the natural sweetener before and after the process of the present invention and the results are illustrated as follow: […]

[1] = Sweetness equivalent to 5% sucrose solution
[2] = Sweetness equivalent to 10% sucrose solution
[3] = Sweetness equivalent to 15% sucrose solution

Compound	Quality of taste [1]	Quality of taste [2]	Quality of taste [3]
C=C1C[C@@]23CC[C@H]4[C@@](C)(CCC[C@@]4(C)C(=O)O[C@@H]4O[C@H](CO)[C@@H](O)[C@H](O)[C@H]4O)[C@@H]2CC[C@]1(O[C@@H]1O[C@H](CO)[C@@H](O)[C@H](O)[C@H]1O[C@@H]1O[C@H](CO)[C@@H](O)[C@H](O)[C@H]1O)C3 [stevioside]	Sweet, Bitter, no unpleasant	Sweet, higher level of	Sweet, irritative, very high
α-glycosyl stevioside	Improve sweetness, pleasant,	Improve sweetness, pleasant,	High quality of sweetness,
